Consider one substance from paper PMC5596348.

Sequences of proteins named here, by UniProt entry; tags and fusion partners are left off. Residues count along the entry.
UniProt P0C0I3, residues 34-571: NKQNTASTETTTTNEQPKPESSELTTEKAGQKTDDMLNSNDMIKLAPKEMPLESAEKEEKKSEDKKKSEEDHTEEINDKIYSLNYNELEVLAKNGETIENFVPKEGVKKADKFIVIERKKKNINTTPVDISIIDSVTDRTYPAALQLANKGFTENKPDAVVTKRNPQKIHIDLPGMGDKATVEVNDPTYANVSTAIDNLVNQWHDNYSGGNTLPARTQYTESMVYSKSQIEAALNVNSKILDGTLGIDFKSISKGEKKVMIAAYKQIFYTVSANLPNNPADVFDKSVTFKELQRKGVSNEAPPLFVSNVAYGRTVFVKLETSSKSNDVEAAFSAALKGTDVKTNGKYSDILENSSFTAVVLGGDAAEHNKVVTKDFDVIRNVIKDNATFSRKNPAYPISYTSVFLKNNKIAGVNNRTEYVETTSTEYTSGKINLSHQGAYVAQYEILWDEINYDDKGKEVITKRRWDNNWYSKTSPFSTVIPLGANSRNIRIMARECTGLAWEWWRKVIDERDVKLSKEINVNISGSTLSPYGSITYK

No constants are given. Whether binding was seen depends on the method and setting.

The target of assay [1] is streptolysin O (Streptococcus pyogenes (group A Streptococcus), strain 854) (UniProt P0C0I3). Nature of the assay: cross-linking; […], room temperature; […], pH 7.4; […]; both purified.
The target is the same in assay [2]. Put plainly: SEC-MALS; […]; PBS, 1 mM DTT, pH 7.4; room temperature; both purified. (Size exclusion chromatography separates by hydrodynamic size, large species first.)

In the case of “streptolysin O (from UniProt P0C0I3 34-571)”, the results for the binding entry in assay [1] and in assay [2] were “no binding (tested: 12 μM)” and “no binding (tested: 25 μM)”, respectively.
